Test results from article PMC4506582.
No constants are given. Whether binding was seen depends on the method and setting.

Target: PfCoronin 1-388 (N-terminal beta-propeller domain of Plasmodium falciparum coronin) (Plasmodium falciparum) (UniProt Q8I4S2)
Assay: SEC; Superdex 200 10/300 GL, 30 mM Tris pH 8.0, 300 mM NaCl, 5 mM 2-mercaptoethanol; PfCor-N eluted at ~16 mL; both purified

For “PfCoronin 1-388 (N-terminal beta-propeller domain of Plasmodium falciparum coronin) (from UniProt Q8I4S2 1-388) (domain or fragment)”, the binding was “no binding”.
